Patent US20160215111A1, “MATERIALS AND METHODS” (THE UNIVERSITY OF SYDNEY, priority 2013, published 2016)

Assay: ATR-FTIR detection of surface-bound peptide (amide bands) before and after Tween-20 washing
Format: physicochemical
Conditions: 2% tween-20 wash at 70° C. (FIG. 2)

## ACLGKACGRKRK [peptide 36]
PIII treated polystyrene
  peptide associated amide bands after tween-20 washing: still observed
Untreated polystyrene
  peptide associated amide bands after tween-20 washing: not on untreated polystyrene
